# Measured values published in PubChem BioAssay AID493014 (National Center for Advancing Translational Sciences (NCATS), 2011).
# The list shows a part of the results. Further columns of the screen follow, without active or inactive calls. The list favours compounds with an active or inconclusive main result. Potencies come from curve fits of mixed quality, noted in brackets.
# Test: qHTS Assay to Find Inhibitors of Chronic Active B-Cell Receptor Signaling
# Details: ABC-DLBCL IkBa-CBG/CBR reporter, luminescence ratio (green luciferase fused to IkBa over red control in TMD8 lymphoma cells), 4 h; measured here: CBR red luminescence, cell number
# Procedure, shortened: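 TMD8 human ABC-DLBCL cells with doxycycline-inducible IκBα–green luciferase fusion and unfused red luciferase, in 0.5% FBS medium; compounds up to 46 uM, 4 h at 37C. Green/red luminescence ratio, filter-overlap corrected, fitted to concentration-response curves.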
row,SMILES,AC50
1,O=C(NCCCN1CCN(c2cccc(Cl)c2)CC1)c1nc(-c2ccncc2)no1,"0.00731 µM [falling, full curve, poor fit]"
2,COc1cccc(N(CC(=O)N2CCc3ccccc3C2)S(C)(=O)=O)c1,"29.1 µM [falling, single point]"
3,O=C(/C=C/Nc1ccc(S(=O)(=O)Nc2cnc3ccccc3n2)cc1)c1ccccc1,"15.8 µM [rising, single point]"
4,CCOC(=O)c1c(CN2CCN(CC#N)CC2)n(C)c2cc(Br)c(OC)cc12,"7.08 µM [falling, partial curve]"
5,Cc1c(C)c2ccc(OCC(=O)c3ccccc3)cc2oc1=O,"0.251 µM [rising, full curve, poor fit]"
6,COc1ccc(N(Cc2cc3cccc(C)c3[nH]c2=O)S(C)(=O)=O)cc1,"32.6 µM [rising, single point]"
7,CCCCCCC12CCC(C(=O)O)(CC1)CC2,"0.58 µM [rising, full curve, poor fit]"
8,COc1ccc2oc(C(=O)OCC(=O)N3C(C)CCCC3C)c(C)c2c1 (stereo not drawn),"11.2 µM [falling, single point]"
9,COCCCn1c(SCC(=O)OC2CCCCC2)nnc1-c1ccco1,"0.447 µM [falling, full curve, poor fit]"
10,COc1ccccc1Nc1ncnc2c1oc1ccccc12,"3.98 µM [rising, full curve, poor fit]"
11,COc1cccc2sc3ccc(C#CC4(O)CCCCC4)cc3c(=O)c12,"35.5 µM [falling, single point]"
12,Cc1nc2c(c(=O)n1Cc1ccco1)c1nc3ccccc3nc1n2Cc1ccccc1,"5.8 µM [falling, partial curve]"
13,C(=N\Nc1ccccc1)/c1nc2ccccc2s1,"12.6 µM [falling, partial curve, poor fit]"
14,O=C(N/N=C/c1ccccc1)c1ccc(OCc2ccccc2)cc1,"15.8 µM [falling, partial curve, poor fit]"
15,COC(=O)[C@H](Cc1ccccc1)NC(=O)NCc1cccs1,"29.1 µM [rising, single point]"
16,CCOC(=O)Cc1csc(NC(=O)/C=C/c2ccc(OC)cc2)n1,"0.631 µM [falling, full curve, poor fit]"
17,COc1ccc(C2=NN(CCC(=O)NCc3ccc4c(c3)OCO4)C(=O)CC2)cc1,"6.51 µM [rising, single point]"
18,CCCn1c(CN(Cc2ccccc2)Cc2ccccc2)nc2c1c(=O)n(C)c(=O)n2C,"6.51 µM [falling, partial curve]"

# Nos. 13 to 14, reprinted for reference:
row,SMILES,AC50
13,C(=N\Nc1ccccc1)/c1nc2ccccc2s1,"12.6 µM [falling, partial curve, poor fit]"
14,O=C(N/N=C/c1ccccc1)c1ccc(OCc2ccccc2)cc1,"15.8 µM [falling, partial curve, poor fit]"
